# Values of other authors as cited in patent publication US7612115B2, “Aqueous pharmaceutical compositions” (Wakamoto Pharmaceutical Co., Ltd., priority 2000, dated 2009).
# At least one compound was matched to its structure with a doubt left.
# Details: "It is said"
smiles,measurement,value
"C[C@H]1COc2c(N3CCN(C)CC3)c(F)cc3c(=O)c(C(=O)O)cn1c23 [LVFX, levofloxacin]",antibacterial activity relative to OFLX,2 fold
